Experimental data: the supplement of paper PMC4604168 (melanoma cell lines)
The list shows a part of the results. Many values rest on one well or one pass, so single values are uncertain.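 The apoptosis fraction was the count of cleaved-PARP antibody-stained nuclei relative to all DNA-stained nuclei, imaged in 1,536-well plates. Screening doses were set so most cells survived, and baseline and induced cleaved-PARP levels vary greatly across cell lines.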

Experiments:
Assay in all cases: cleaved PARP positive nuclei fraction relative to DMSO control; melanoma cells; higher = more apoptosis
Conditions in all cases: library dose: low library concentration; 72 h
501Mel = tested on: 501Mel
A101D = tested on: A101D
A2058 = tested on: A2058
A375 = tested on: A375
C32 = tested on: C32
CBRC013 = tested on: CBRC013 (line from a melanoma biopsy)
CBRC014 = tested on: CBRC014 (line from a melanoma biopsy)
CBRC016 = tested on: CBRC016 (line from a melanoma biopsy)
CBRC017 = tested on: CBRC017 (line from a melanoma biopsy)

Structure (SMILES)	cleaved PARP positive nuclei fraction (501Mel) [%]	cleaved PARP positive nuclei fraction (A101D) [%]	cleaved PARP positive nuclei fraction (A2058) [%]	cleaved PARP positive nuclei fraction (A375) [%]	cleaved PARP positive nuclei fraction (C32) [%]	cleaved PARP positive nuclei fraction (CBRC013) [%]	cleaved PARP positive nuclei fraction (CBRC014) [%]	cleaved PARP positive nuclei fraction (CBRC016) [%]	cleaved PARP positive nuclei fraction (CBRC017) [%]
O=C(O)c1ccc(-c2c[nH]c3ncc(-c4ccccc4)cc23)cc1C1CCCC1 + CCN(CC)CCCCNc1ncc2cc(-c3cc(OC)cc(OC)c3)c(NC(=O)NC(C)(C)C)nc2n1 [PD173074] (first compound 0.16 µM, partner dose 0.1 µM)	80	167	53.4	172	183	146	115	89.9	99.1
N#Cc1c(O)c2c(-c3ccc(-c4ccccc4O)cc3)csc2[nH]c1=O + COc1ccc2c(c1)CCC1C2CCC2(C)C(NCCCCCCN3C(=O)C=CC3=O)CCC12 [U73122] (first compound 2 µM, partner dose 0.4 µM)	87	106	127	108	201	279	98.9	105	100
CN(NC(=O)CC(=O)NN(C)C(=S)c1ccccc1)C(=S)c1ccccc1 + Oc1nc(-c2ccc(C(F)(F)F)cc2)nc2c1CSCC2 [XAV939] (first compound 0.006 µM, partner dose 2 µM)	116	84.4	49.1	1120	92.9	94.2	456	122	106
NCC(=O)Nc1ccc(-n2nc(C(F)(F)F)cc2-c2ccc3c(ccc4ccccc43)c2)cc1 + COc1ccc(COc2ccc(Cc3cnc(N)nc3N)cc2OC)cc1 [GW2580] (first compound 1 µM, partner dose 1 µM)	141	171	134	7250	48.3	183	95.3	75.5	75.8
O=C(O)C(=O)Nc1sc2c(c1C(=O)O)CCNC2 + Cc1cc([N+](=O)[O-])ccc1NS(=O)(=O)c1cc(Cl)ccc1Cl [FH535] (first compound 1.66667 µM, partner dose 1 µM)	87	61.8	61.6	298	83.9	35.5	118	110	227
O=C(Nc1ccccc1)c1cc([N+](=O)[O-])ccc1Cl + COC(=O)c1sccc1S(=O)(=O)Nc1ccc(Nc2ccccc2)cc1OC [GSK0660] (first compound 2 µM, partner dose 1 µM)	84.2	152	40.6	72.4	68.8	88.3	96.7	91.2	113
CN(NC(=O)CC(=O)NN(C)C(=S)c1ccccc1)C(=S)c1ccccc1 + O=S(=O)(c1ccccc1)N(CC(F)(F)F)c1ccc(C(O)(C(F)(F)F)C(F)(F)F)cc1 [T0901317] (first compound 0.006 µM, partner dose 1.4 µM)	263	157	164	11000	229	56.9	423	93.9	122
O=S(=O)(c1ccccc1)N(CC(F)(F)F)c1ccc(C(O)(C(F)(F)F)C(F)(F)F)cc1 + Cn1cc(/C=C2\C(=O)Nc3cccnc32)c2ccccc21 [GW441756] (first compound 1.4 µM, partner dose 0.4 µM)	200	37.3	106	110	52.7	57.2	92.6	67.5	117
CN(NC(=O)CC(=O)NN(C)C(=S)c1ccccc1)C(=S)c1ccccc1 + COc1ccc(-c2ccc3c(N4CCOCC4)nc(N4C[C@@H](C)O[C@@H](C)C4)nc3n2)cc1CO [KU0063794] (first compound 0.006 µM, partner dose 0.02 µM)	169	290	116	2050	86.7	68.6	429	252	71.3
N#Cc1c(O)c2c(-c3ccc(-c4ccccc4O)cc3)csc2[nH]c1=O + Oc1cc(-c2nc(-c3ccccc3)[nH]c2-c2ccncc2)ccc1Cl [L779450] (first compound 2 µM, partner dose 0.2 µM)	42.3	124	110	15.9	70	125	93.8	83	89.9
CN(C)S(=O)(=O)c1ccc2c(c1)/C(=C/c1cc3c([nH]1)CCCC3)C(=O)N2 + Cc1cc([N+](=O)[O-])ccc1NS(=O)(=O)c1cc(Cl)ccc1Cl [FH535] (first compound 0.4 µM, partner dose 1 µM)	79.6	105	56.8	24.4	102	64.2	154	2040	234
COc1ccc2c(c1)CCC1C2CCC2(C)C(NCCCCCCN3C(=O)C=CC3=O)CCC12 (centres undefined) + COc1cc2ncnc(Nc3ccc(Oc4ccccc4)cc3)c2cc1OC [SrcI1] (first compound 0.4 µM, partner dose 2 µM)	77.3	106	150	180	35.3	103	107	86.4	167
COc1ccc2c(c1)CCC1C2CCC2(C)C(NCCCCCCN3C(=O)C=CC3=O)CCC12 (centres undefined) + O=C(O)C(=O)Nc1sc2c(c1C(=O)O)CCNC2 [TCS401] (first compound 0.4 µM, partner dose 1.66667 µM)	67.9	179	29.2	207	146	675	107	50.6	87.4
O=C(Nc1ccccc1)c1cc([N+](=O)[O-])ccc1Cl + CC(C)CCN1c2nc(Nc3cc(F)c(O)c(F)c3)ncc2N(C)C(=O)C1C [BID1870] (first compound 2 µM, partner dose 0.2 µM)	188	223	120	93.9	162	136	107	88.9	249
CN(C)S(=O)(=O)c1ccc2c(c1)/C(=C/c1cc3c([nH]1)CCCC3)C(=O)N2 + CCCCCCCCCCCC1=C(O)C(=O)C=C(O)C1=O [Embelin] (first compound 0.4 µM, partner dose 1.2 µM)	70.2	65.6	113	122	297	177	90.3	85.1	187
COc1cc(N2CCC(N3CCN(C)CC3)CC2)ccc1Nc1ncc(Cl)c(Nc2ccccc2S(=O)(=O)C(C)C)n1 + CC(C)CCN1c2nc(Nc3cc(F)c(O)c(F)c3)ncc2N(C)C(=O)C1C [BID1870] (first compound 0.08 µM, partner dose 0.2 µM)	69.6	140	297	109	42.8	220	125	40.8	84.2
CN(NC(=O)CC(=O)NN(C)C(=S)c1ccccc1)C(=S)c1ccccc1 + CC(C)CCN1c2nc(Nc3cc(F)c(O)c(F)c3)ncc2N(C)C(=O)C1C [BID1870] (first compound 0.006 µM, partner dose 0.2 µM)	194	150	174	2480	459	193	640	153	138
COc1ccc(-c2ccc3c(N4CCOCC4)nc(N4C[C@@H](C)O[C@@H](C)C4)nc3n2)cc1CO + O=C1NC(=O)/C(=C/c2ccc(-c3ccc(F)cc3O)o2)S1 [AS252424] (first compound 0.02 µM, partner dose 1 µM)	122	203	101	65.9	282	89.2	103	53.9	133
COc1ccc(COc2ccc(Cc3cnc(N)nc3N)cc2OC)cc1 + CCCCCCCCCCCC1=C(O)C(=O)C=C(O)C1=O [Embelin] (first compound 1 µM, partner dose 1.2 µM)	73.9	115	54.9	57	108	263	158	97.7	76.4
COc1cc2c(Oc3ccc4[nH]c(C)cc4c3F)ncnc2cc1OCCCN1CCCC1 [cediranib] + Cc1cc([N+](=O)[O-])ccc1NS(=O)(=O)c1cc(Cl)ccc1Cl [FH535] (first compound 0.4 µM, partner dose 1 µM)	70.9	58.9	85.1	87.3	61.6	48.1	98.1	2420	151
COc1ccc(-c2ccc3c(N4CCOCC4)nc(N4C[C@@H](C)O[C@@H](C)C4)nc3n2)cc1CO + O=C(O)C(=O)Nc1sc2c(c1C(=O)O)CCNC2 [TCS401] (first compound 0.02 µM, partner dose 1.66667 µM)	79.4	79.8	199	151	67.6	85.1	81.8	139	182

Single records, as listed above. Order of values: cleaved PARP positive nuclei fraction (501Mel) [%]	cleaved PARP positive nuclei fraction (A101D) [%]	cleaved PARP positive nuclei fraction (A2058) [%]	cleaved PARP positive nuclei fraction (A375) [%]	cleaved PARP positive nuclei fraction (C32) [%]	cleaved PARP positive nuclei fraction (CBRC013) [%]	cleaved PARP positive nuclei fraction (CBRC014) [%]	cleaved PARP positive nuclei fraction (CBRC016) [%]	cleaved PARP positive nuclei fraction (CBRC017) [%]
CN(C)S(=O)(=O)c1ccc2c(c1)/C(=C/c1cc3c([nH]1)CCCC3)C(=O)N2 + Cc1cc([N+](=O)[O-])ccc1NS(=O)(=O)c1cc(Cl)ccc1Cl [FH535] (first compound 0.4 µM, partner dose 1 µM) reads 79.6	105	56.8	24.4	102	64.2	154	2040	234
COc1ccc(COc2ccc(Cc3cnc(N)nc3N)cc2OC)cc1 + CCCCCCCCCCCC1=C(O)C(=O)C=C(O)C1=O [Embelin] (first compound 1 µM, partner dose 1.2 µM) reads 73.9	115	54.9	57	108	263	158	97.7	76.4
